Assay results published in the supplement of paper PMC10849652.
This is one part of the list.

Sequences of proteins named here, by UniProt entry; tags and fusion partners are left off. A change or cut given only in a name is not applied to a line headed by its entry.
UniProt Q8TBQ9: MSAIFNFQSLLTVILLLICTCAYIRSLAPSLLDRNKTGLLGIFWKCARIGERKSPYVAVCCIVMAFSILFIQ
UniProt Q9NZR1: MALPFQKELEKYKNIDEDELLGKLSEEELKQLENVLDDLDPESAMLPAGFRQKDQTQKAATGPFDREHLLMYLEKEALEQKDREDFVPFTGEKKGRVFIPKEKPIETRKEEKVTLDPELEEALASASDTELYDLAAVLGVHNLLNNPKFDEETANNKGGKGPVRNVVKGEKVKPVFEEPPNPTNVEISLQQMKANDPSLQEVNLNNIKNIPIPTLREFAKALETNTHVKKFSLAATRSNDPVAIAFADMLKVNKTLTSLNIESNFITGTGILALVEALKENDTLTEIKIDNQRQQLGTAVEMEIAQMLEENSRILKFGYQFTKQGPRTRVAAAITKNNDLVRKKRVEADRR
UniProt Q7Z7H5: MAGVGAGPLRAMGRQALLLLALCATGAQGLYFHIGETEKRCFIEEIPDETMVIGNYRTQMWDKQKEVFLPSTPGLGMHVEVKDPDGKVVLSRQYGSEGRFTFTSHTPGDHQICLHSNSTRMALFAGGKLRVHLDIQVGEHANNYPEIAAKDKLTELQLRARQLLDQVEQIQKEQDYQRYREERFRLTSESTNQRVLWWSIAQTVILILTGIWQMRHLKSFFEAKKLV
UniProt Q9BVC6: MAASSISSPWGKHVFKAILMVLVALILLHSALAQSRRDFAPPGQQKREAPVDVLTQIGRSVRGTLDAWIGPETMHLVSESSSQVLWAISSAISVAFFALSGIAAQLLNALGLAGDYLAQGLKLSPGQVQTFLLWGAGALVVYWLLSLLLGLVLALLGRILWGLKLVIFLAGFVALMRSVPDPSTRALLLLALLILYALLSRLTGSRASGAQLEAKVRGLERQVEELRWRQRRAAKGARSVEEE
UniProt Q9BRN9: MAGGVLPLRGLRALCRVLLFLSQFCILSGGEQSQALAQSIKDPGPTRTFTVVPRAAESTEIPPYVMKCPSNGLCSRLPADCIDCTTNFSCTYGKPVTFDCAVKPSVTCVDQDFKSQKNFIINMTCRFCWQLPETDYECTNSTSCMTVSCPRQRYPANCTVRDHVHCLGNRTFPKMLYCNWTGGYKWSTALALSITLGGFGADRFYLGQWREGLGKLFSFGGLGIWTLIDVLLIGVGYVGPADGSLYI
UniProt Q96I45: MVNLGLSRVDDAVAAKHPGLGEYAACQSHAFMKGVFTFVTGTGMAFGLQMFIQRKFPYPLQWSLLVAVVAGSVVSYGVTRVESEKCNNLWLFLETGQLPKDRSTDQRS
UniProt Q6PI78: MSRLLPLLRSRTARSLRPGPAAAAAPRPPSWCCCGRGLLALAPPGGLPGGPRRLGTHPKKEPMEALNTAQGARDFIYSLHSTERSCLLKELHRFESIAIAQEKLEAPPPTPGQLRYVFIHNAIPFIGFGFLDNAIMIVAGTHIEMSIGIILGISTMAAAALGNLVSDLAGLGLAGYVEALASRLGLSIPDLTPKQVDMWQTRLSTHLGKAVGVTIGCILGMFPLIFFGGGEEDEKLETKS
UniProt Q8NBN3: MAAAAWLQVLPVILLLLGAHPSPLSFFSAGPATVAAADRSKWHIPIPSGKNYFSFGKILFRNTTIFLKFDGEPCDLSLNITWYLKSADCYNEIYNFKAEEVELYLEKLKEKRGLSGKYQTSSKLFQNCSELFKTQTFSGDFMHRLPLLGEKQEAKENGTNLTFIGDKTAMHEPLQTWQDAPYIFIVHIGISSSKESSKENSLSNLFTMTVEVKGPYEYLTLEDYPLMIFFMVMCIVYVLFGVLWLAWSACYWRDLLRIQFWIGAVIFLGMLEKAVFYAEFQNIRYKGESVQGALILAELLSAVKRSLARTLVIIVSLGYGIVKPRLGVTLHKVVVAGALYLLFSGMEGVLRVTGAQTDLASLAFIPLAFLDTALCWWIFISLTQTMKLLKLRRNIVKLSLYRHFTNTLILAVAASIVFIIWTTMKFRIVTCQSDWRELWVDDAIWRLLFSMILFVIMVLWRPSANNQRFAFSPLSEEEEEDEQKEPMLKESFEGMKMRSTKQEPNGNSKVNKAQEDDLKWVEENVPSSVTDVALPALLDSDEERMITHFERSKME
UniProt P57088: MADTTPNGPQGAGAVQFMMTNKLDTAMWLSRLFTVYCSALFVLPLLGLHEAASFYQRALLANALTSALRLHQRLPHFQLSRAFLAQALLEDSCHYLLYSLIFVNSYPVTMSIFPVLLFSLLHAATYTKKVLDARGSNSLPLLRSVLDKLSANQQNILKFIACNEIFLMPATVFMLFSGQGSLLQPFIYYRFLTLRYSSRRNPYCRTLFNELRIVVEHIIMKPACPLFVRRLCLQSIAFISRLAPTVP
UniProt Q9NX00: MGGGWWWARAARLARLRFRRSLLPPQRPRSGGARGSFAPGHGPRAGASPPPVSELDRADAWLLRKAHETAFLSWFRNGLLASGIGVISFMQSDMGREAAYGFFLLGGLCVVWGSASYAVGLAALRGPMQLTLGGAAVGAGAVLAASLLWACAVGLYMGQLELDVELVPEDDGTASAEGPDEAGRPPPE
UniProt P42167: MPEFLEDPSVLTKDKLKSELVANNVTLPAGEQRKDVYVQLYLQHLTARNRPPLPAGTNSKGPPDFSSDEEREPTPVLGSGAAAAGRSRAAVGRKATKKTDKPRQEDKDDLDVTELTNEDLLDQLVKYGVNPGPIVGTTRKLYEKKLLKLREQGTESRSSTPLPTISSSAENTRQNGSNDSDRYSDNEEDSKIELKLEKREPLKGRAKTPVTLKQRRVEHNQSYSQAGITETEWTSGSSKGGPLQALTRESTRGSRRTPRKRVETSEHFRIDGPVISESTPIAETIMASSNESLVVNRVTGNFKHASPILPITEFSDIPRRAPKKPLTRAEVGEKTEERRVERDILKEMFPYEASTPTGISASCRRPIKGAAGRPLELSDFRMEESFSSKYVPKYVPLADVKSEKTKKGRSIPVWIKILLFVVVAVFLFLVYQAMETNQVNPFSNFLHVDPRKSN
UniProt Q9H7F4: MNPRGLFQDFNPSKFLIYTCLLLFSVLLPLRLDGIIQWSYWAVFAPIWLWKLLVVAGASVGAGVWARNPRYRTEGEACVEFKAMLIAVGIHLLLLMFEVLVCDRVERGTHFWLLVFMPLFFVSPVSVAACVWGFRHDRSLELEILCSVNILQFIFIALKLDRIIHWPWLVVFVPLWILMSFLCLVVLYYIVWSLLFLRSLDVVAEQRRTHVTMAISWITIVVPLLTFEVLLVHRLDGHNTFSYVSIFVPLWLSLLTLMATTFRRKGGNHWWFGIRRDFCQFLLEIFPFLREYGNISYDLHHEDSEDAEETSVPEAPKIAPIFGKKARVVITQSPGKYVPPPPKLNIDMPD
UniProt Q9UM00: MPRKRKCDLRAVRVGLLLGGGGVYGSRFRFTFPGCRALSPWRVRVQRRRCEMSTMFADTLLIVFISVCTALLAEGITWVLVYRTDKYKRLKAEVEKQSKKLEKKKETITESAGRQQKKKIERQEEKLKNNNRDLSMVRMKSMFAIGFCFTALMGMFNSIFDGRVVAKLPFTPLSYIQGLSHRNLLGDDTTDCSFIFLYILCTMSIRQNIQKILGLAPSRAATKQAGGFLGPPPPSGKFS
UniProt Q15363: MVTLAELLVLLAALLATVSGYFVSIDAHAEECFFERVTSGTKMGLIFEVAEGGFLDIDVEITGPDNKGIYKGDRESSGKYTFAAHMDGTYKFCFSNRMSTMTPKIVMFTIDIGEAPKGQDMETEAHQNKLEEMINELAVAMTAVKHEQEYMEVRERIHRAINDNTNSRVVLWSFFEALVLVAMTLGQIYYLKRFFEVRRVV
UniProt P42166: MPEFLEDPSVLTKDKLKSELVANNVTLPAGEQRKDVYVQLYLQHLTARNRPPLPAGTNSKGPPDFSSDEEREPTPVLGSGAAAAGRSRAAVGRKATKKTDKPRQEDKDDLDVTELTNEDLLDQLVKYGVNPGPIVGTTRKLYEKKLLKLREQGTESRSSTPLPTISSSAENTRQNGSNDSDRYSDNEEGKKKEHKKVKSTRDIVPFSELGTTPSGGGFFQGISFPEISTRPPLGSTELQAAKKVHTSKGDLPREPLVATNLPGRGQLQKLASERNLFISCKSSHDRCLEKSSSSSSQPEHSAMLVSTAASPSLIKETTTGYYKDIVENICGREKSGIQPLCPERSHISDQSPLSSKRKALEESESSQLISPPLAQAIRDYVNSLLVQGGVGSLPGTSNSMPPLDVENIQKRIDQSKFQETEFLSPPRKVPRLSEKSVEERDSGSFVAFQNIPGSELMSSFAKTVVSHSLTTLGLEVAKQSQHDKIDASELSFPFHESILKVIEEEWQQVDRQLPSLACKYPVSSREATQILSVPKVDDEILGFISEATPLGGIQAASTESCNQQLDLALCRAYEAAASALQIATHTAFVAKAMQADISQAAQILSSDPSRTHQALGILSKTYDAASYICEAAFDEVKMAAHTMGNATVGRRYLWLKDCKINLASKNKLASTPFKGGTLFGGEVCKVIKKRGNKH
UniProt Q4ZIN3: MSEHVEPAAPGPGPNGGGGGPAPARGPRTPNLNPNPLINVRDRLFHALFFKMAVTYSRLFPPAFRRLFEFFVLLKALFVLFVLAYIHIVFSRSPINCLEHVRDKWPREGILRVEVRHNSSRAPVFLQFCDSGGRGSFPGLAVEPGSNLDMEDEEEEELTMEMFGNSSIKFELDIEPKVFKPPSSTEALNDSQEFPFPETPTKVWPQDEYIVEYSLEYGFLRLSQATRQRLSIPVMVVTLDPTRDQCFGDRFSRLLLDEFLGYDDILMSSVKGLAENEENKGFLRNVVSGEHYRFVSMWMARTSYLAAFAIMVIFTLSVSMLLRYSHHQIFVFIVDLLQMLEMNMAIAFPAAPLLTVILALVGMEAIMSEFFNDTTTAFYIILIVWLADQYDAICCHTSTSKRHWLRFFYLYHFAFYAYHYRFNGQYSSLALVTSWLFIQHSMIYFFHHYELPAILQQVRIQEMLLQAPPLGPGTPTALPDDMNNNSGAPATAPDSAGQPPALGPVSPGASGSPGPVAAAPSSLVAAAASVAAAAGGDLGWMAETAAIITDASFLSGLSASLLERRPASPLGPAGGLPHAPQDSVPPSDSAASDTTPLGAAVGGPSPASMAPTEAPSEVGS
UniProt P63313: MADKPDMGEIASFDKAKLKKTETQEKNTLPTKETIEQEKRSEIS
UniProt Q9NWD8: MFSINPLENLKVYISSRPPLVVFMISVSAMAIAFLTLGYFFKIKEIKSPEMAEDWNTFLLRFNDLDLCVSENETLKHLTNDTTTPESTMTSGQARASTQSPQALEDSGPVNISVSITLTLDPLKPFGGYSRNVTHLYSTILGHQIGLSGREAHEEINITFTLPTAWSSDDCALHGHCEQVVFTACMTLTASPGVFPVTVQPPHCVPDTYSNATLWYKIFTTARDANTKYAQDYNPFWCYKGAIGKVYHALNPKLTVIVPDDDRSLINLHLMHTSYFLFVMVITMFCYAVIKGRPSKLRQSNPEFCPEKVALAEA
UniProt Q96SK2: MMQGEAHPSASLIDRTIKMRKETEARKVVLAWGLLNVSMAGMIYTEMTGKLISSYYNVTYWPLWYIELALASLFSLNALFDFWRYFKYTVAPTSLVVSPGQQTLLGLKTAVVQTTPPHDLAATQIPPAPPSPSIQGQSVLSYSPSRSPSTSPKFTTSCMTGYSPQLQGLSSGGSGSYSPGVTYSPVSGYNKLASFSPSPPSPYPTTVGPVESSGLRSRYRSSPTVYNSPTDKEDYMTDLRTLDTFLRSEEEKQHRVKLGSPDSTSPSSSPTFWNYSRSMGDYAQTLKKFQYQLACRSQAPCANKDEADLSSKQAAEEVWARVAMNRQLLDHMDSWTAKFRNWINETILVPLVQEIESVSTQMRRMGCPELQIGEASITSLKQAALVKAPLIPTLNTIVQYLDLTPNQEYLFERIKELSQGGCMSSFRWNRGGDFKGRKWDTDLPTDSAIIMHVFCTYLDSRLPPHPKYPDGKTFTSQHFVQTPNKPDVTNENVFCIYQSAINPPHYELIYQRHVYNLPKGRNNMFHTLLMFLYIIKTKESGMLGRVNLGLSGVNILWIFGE
UniProt Q96A57: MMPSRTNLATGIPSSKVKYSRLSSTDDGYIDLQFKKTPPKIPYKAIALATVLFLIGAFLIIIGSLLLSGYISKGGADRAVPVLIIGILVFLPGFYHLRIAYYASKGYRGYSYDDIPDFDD
UniProt Q13445: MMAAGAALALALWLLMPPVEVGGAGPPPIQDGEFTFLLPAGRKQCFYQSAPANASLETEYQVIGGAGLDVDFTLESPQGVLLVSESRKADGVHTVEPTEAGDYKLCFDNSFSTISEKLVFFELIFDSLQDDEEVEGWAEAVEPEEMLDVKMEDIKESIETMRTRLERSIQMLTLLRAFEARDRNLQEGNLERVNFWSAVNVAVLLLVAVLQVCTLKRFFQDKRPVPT
UniProt P17152: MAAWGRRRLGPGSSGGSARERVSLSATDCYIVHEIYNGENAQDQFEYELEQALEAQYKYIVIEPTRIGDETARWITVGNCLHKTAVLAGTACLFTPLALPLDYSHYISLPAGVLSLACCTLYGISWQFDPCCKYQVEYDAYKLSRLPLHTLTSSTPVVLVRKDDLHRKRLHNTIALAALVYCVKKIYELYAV

These targets were tested with CN1CCN(CCOc2cc(OC3CCOCC3)c3c(Nc4c(Cl)ccc5c4OCO5)ncnc3c2)CC1 [saracatinib] (assay: log2 fold change, soluble protein after heating vs DMSO (PISA); higher = thermal stabilisation; K562 cells, 10 uM, 30 min; active = over 0.2 and 3.5 SD of the protein, either way, in both replicates (recomputed)).
How it was run: (§1)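 Values are thermal stability changes relative to control samples and are taken from duplicates. They are stated as log2 fold changes. Before quantification by TMTpro 16plex LC-MS/MS with equalised channel sums, K562 cells at 2×10^6 cells/mL were treated with 10 μM compound for 30 min, heated in aliquots for 3 min across 48°C-58°C, pooled, extracted in PBS with 0.5% NP-40 at 4°C, and centrifuged at 21,000xg for 90 min to give the soluble supernatant.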

**Q.** Which log2 fold change does the source give for TMEM245 (UniProt Q9H330) here?
**A.** The log2 fold change was inactive: 0.049.

**Q.** TMEM167A (UniProt Q8TBQ9) was tested. Which log2 fold change did it give?
**A.** Its log2 fold change is inactive: 0.07.

**Q.** TMOD2 (UniProt Q9NZR1) was tested. Which log2 fold change did it give?
**A.** The log2 fold change was inactive: -0.01.

**Q.** Which log2 fold change does the source give for TMED4 (UniProt Q7Z7H5) here?
**A.** Its log2 fold change is inactive: 0.005.

**Q.** TMEM14C (UniProt Q9P0S9) was tested. Which log2 fold change did it give?
**A.** Its log2 fold change is inactive: 0.131.

**Q.** With TLN2 (UniProt Q9Y4G6) as the target, how does the log2 fold change read?
**A.** The log2 fold change was inactive: -0.011.

**Q.** For TMEM109 (UniProt Q9BVC6), which log2 fold change is on record?
**A.** The log2 fold change was inactive: -0.033.

**Q.** Which log2 fold change does the source give for TM2D3 (UniProt Q9BRN9) here?
**A.** Its log2 fold change is inactive: -0.087.

**Q.** Which log2 fold change does the source give for TMEM186 (UniProt Q96B77) here?
**A.** Its log2 fold change is inactive: -0.003.

**Q.** With TMEM141 (UniProt Q96I45) as the target, how does the log2 fold change read?
**A.** Its log2 fold change is inactive: 0.092.

**Q.** Which log2 fold change does the source give for TMEM65 (UniProt Q6PI78) here?
**A.** The log2 fold change was inactive: 0.082.

**Q.** Which log2 fold change does the source give for TMEM87A (UniProt Q8NBN3) here?
**A.** Its log2 fold change is inactive: 0.011.

**Q.** For TMEM33 (UniProt P57088), which log2 fold change is on record?
**A.** The log2 fold change was inactive: 0.057.

**Q.** With TLN1 (UniProt Q9Y490) as the target, how does the log2 fold change read?
**A.** The log2 fold change was inactive: 0.003.

**Q.** TNFRSF10B (UniProt O14763) was tested. Which log2 fold change did it give?
**A.** The log2 fold change was inactive: -0.106.

**Q.** Which log2 fold change does the source give for TMEM160 (UniProt Q9NX00) here?
**A.** Its log2 fold change is inactive: 0.046.

**Q.** How did the log2 fold change turn out when TM9SF3 (UniProt Q9HD45) was run?
**A.** Its log2 fold change is inactive: 0.062.

**Q.** For TMPO isoform 2 (UniProt P42167), which log2 fold change is on record?
**A.** The log2 fold change was inactive: 0.035.

**Q.** For TMOD3 (UniProt Q9NYL9), which log2 fold change is on record?
**A.** The log2 fold change was inactive: -0.016.

**Q.** TMEM222 (UniProt Q9H0R3) was tested. Which log2 fold change did it give?
**A.** Its log2 fold change is inactive: -0.347.

**Q.** TMEM185B (UniProt Q9H7F4) was tested. Which log2 fold change did it give?
**A.** Its log2 fold change is inactive: -0.079.

**Q.** With TMA16 (UniProt Q96EY4) as the target, how does the log2 fold change read?
**A.** The log2 fold change was inactive: -0.096.

**Q.** TMEM30A (UniProt Q9NV96) was tested. Which log2 fold change did it give?
**A.** The log2 fold change was inactive: 0.043.

**Q.** Which log2 fold change does the source give for TMEM68 (UniProt Q96MH6) here?
**A.** The log2 fold change was inactive: 0.121.

**Q.** TMCO1 (UniProt Q9UM00) was tested. Which log2 fold change did it give?
**A.** The log2 fold change was inactive: -0.001.

**Q.** For TMED2 (UniProt Q15363), which log2 fold change is on record?
**A.** Its log2 fold change is inactive: -0.004.

**Q.** With TMX4 (UniProt Q9H1E5) as the target, how does the log2 fold change read?
**A.** Its log2 fold change is inactive: -0.091.

**Q.** TMEM168 (UniProt Q9H0V1) was tested. Which log2 fold change did it give?
**A.** Its log2 fold change is inactive: -0.289.

**Q.** With TMPO (UniProt P42166) as the target, how does the log2 fold change read?
**A.** The log2 fold change was inactive: 0.016.

**Q.** TMEM259 (UniProt Q4ZIN3) was tested. Which log2 fold change did it give?
**A.** The log2 fold change was inactive: -0.041.

**Q.** For TMSB10 (UniProt P63313), which log2 fold change is on record?
**A.** The log2 fold change was inactive: -0.058.

**Q.** How did the log2 fold change turn out when TMEM248 (UniProt Q9NWD8) was run?
**A.** The log2 fold change was inactive: -0.122.

**Q.** How did the log2 fold change turn out when TMED3 (UniProt Q9Y3Q3) was run?
**A.** Its log2 fold change is inactive: -0.006.

**Q.** Which log2 fold change does the source give for TMEM209 (UniProt Q96SK2) here?
**A.** Its log2 fold change is inactive: -0.008.

**Q.** With TMEM230 isoform 2 (UniProt Q96A57) as the target, how does the log2 fold change read?
**A.** Its log2 fold change is inactive: 0.128.

**Q.** TMED1 (UniProt Q13445) was tested. Which log2 fold change did it give?
**A.** Its log2 fold change is inactive: 0.051.

**Q.** How did the log2 fold change turn out when TMPO (UniProt P42167) was run?
**A.** The log2 fold change was inactive: 0.011.

**Q.** TMEM62 (UniProt Q0P6H9) was tested. Which log2 fold change did it give?
**A.** The log2 fold change was inactive: 0.073.

**Q.** For TMEM11 (UniProt P17152), which log2 fold change is on record?
**A.** The log2 fold change was inactive: 0.042.

Each target was assayed with CN1CCN(c2nc(C3=C(c4c[nH]c5ccccc45)C(=O)NC3=O)c3ccccc3n2)CC1 [sotrastaurin] in the same assay as above.
How it was run: as §1

**Q.** TMEM245 (UniProt Q9H330) was tested. Which log2 fold change did it give?
**A.** The log2 fold change was inactive: 0.017.

**Q.** With TMEM167A (UniProt Q8TBQ9) as the target, how does the log2 fold change read?
**A.** Its log2 fold change is inactive: 0.011.

**Q.** How did the log2 fold change turn out when TMOD2 (UniProt Q9NZR1) was run?
**A.** Its log2 fold change is inactive: 0.114.

**Q.** For TMED4 (UniProt Q7Z7H5), which log2 fold change is on record?
**A.** Its log2 fold change is inactive: 0.042.

**Q.** TMEM14C (UniProt Q9P0S9) was tested. Which log2 fold change did it give?
**A.** Its log2 fold change is inactive: 0.016.

**Q.** With TLN2 (UniProt Q9Y4G6) as the target, how does the log2 fold change read?
**A.** The log2 fold change was inactive: -0.056.

**Q.** For TMEM109 (UniProt Q9BVC6), which log2 fold change is on record?
**A.** The log2 fold change was inactive: -0.004.

**Q.** How did the log2 fold change turn out when TM2D3 (UniProt Q9BRN9) was run?
**A.** Its log2 fold change is inactive: -0.08.

**Q.** With TMEM186 (UniProt Q96B77) as the target, how does the log2 fold change read?
**A.** Its log2 fold change is inactive: -0.022.

**Q.** For TMEM141 (UniProt Q96I45), which log2 fold change is on record?
**A.** Its log2 fold change is inactive: 0.073.

**Q.** Which log2 fold change does the source give for TMEM65 (UniProt Q6PI78) here?
**A.** The log2 fold change was inactive: 0.135.

**Q.** How did the log2 fold change turn out when TMEM87A (UniProt Q8NBN3) was run?
**A.** The log2 fold change was inactive: 0.058.

**Q.** How did the log2 fold change turn out when TMEM33 (UniProt P57088) was run?
**A.** Its log2 fold change is inactive: -0.001.

**Q.** How did the log2 fold change turn out when TLN1 (UniProt Q9Y490) was run?
**A.** The log2 fold change was inactive: -0.056.

**Q.** TNFRSF10B (UniProt O14763) was tested. Which log2 fold change did it give?
**A.** Its log2 fold change is inactive: 0.019.

**Q.** TMEM160 (UniProt Q9NX00) was tested. Which log2 fold change did it give?
**A.** The log2 fold change was inactive: 0.051.

**Q.** How did the log2 fold change turn out when TM9SF3 (UniProt Q9HD45) was run?
**A.** The log2 fold change was inactive: 0.082.

**Q.** For TMPO isoform 2 (UniProt P42167), which log2 fold change is on record?
**A.** Its log2 fold change is inactive: 0.121.

**Q.** How did the log2 fold change turn out when TMOD3 (UniProt Q9NYL9) was run?
**A.** The log2 fold change was inactive: -0.072.

**Q.** TMEM222 (UniProt Q9H0R3) was tested. Which log2 fold change did it give?
**A.** The log2 fold change was inactive: 0.083.

**Q.** With TMEM185B (UniProt Q9H7F4) as the target, how does the log2 fold change read?
**A.** The log2 fold change was inactive: 0.046.

**Q.** With TMA16 (UniProt Q96EY4) as the target, how does the log2 fold change read?
**A.** Its log2 fold change is inactive: 0.016.

**Q.** For TMEM30A (UniProt Q9NV96), which log2 fold change is on record?
**A.** The log2 fold change was inactive: 0.057.

**Q.** For TMEM68 (UniProt Q96MH6), which log2 fold change is on record?
**A.** Its log2 fold change is inactive: 0.049.

**Q.** With TMCO1 (UniProt Q9UM00) as the target, how does the log2 fold change read?
**A.** Its log2 fold change is inactive: 0.054.

**Q.** TMED2 (UniProt Q15363) was tested. Which log2 fold change did it give?
**A.** The log2 fold change was inactive: 0.018.

**Q.** With TMX4 (UniProt Q9H1E5) as the target, how does the log2 fold change read?
**A.** The log2 fold change was inactive: -0.007.

**Q.** TMEM168 (UniProt Q9H0V1) was tested. Which log2 fold change did it give?
**A.** The log2 fold change was inactive: 0.109.

**Q.** Which log2 fold change does the source give for TMPO (UniProt P42166) here?
**A.** Its log2 fold change is inactive: -0.009.

**Q.** TMEM259 (UniProt Q4ZIN3) was tested. Which log2 fold change did it give?
**A.** The log2 fold change was inactive: 0.052.

**Q.** How did the log2 fold change turn out when TMSB10 (UniProt P63313) was run?
**A.** Its log2 fold change is inactive: 0.206.

**Q.** TMEM248 (UniProt Q9NWD8) was tested. Which log2 fold change did it give?
**A.** Its log2 fold change is inactive: 0.008.

**Q.** With TMED3 (UniProt Q9Y3Q3) as the target, how does the log2 fold change read?
**A.** The log2 fold change was inactive: -0.019.

**Q.** With TMEM209 (UniProt Q96SK2) as the target, how does the log2 fold change read?
**A.** Its log2 fold change is inactive: -0.036.

**Q.** With TMEM230 isoform 2 (UniProt Q96A57) as the target, how does the log2 fold change read?
**A.** Its log2 fold change is inactive: 0.048.

**Q.** Which log2 fold change does the source give for TMED1 (UniProt Q13445) here?
**A.** The log2 fold change was inactive: 0.02.

**Q.** With TMPO (UniProt P42167) as the target, how does the log2 fold change read?
**A.** The log2 fold change was inactive: 0.01.

**Q.** TMEM62 (UniProt Q0P6H9) was tested. Which log2 fold change did it give?
**A.** Its log2 fold change is inactive: 0.048.

**Q.** Which log2 fold change does the source give for TMEM11 (UniProt P17152) here?
**A.** The log2 fold change was inactive: 0.004.
